No constants are given. Whether binding was seen depends on the method and setting. Binding seen in cells or lysates may run through a third protein. These calls come from enrichment with a bait or labelling near it, and not all partners need be listed.
Target: mitochondrial phosphoenolpyruvate carboxykinase 2 (PCK2), endogenous in THLE2 cells (human (endogenous in THLE2)) (UniProt Q16822)
Assay: affinity purification with mass spectrometry; proteins captured from THLE2 cell lysates with an anti-PCK2 antibody, resolved by SDS-PAGE, trypsin digest, LC-MS/MS (Q Exactive HF-X)

Protein sequences, listed by entry. Tags and fused reporters are not part of them. Residues count along the entry.
UniProt Q16822, residues 33-640: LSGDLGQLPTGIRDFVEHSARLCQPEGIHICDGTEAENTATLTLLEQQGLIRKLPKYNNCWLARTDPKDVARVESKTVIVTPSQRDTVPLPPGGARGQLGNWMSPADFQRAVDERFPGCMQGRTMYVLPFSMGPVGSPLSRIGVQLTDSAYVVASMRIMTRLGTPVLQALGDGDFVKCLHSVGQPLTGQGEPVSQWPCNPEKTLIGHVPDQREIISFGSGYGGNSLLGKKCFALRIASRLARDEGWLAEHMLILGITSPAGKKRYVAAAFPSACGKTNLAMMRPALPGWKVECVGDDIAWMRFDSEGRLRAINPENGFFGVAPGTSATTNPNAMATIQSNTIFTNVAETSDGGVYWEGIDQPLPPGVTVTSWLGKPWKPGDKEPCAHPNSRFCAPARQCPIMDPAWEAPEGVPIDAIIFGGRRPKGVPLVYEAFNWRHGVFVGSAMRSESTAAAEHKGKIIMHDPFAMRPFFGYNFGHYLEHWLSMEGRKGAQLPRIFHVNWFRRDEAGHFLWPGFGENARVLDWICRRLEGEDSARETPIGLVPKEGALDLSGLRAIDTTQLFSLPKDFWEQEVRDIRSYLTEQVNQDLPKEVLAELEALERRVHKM
UniProt P10809, residues 27-573: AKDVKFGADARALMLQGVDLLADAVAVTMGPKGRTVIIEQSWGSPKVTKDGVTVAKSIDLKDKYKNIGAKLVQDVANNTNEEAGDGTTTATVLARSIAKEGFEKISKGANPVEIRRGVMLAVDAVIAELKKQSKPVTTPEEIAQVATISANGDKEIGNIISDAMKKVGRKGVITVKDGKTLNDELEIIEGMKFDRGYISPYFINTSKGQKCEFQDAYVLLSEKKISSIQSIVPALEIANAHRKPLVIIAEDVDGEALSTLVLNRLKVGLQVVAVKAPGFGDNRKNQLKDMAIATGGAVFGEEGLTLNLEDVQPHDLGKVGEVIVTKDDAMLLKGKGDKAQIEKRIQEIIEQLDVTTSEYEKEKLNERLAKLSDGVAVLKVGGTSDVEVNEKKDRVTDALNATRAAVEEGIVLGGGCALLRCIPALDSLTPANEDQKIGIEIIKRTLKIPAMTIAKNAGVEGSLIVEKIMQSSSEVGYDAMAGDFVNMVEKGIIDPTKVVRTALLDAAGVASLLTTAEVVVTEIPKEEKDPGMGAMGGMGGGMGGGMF

heat shock protein family D member 1 (HSPD1), endogenous in THLE2 cells (from UniProt P10809 27-573)
binding: binds
